Drug screen on melanoma cell lines: cell count

Source: doi:10.1371/journal.pone.0140310, primary screening data, rounded.

Drug key:
nilutamide: CC1(C)NC(=O)N(c2ccc([N+](=O)[O-])c(C(F)(F)F)c2)C1=O at 5 µM
GW2580: COc1ccc(COc2ccc(Cc3cnc(N)nc3N)cc2OC)cc1 at 5 µM
crizotinib: C[C@@H](Oc1cc(-c2cnn(C3CCNCC3)c2)cnc1N)c1c(Cl)ccc(F)c1Cl at 1 µM
gemcitabine: Nc1ccn([C@@H]2O[C@H](CO)[C@@H](O)C2(F)F)c(=O)n1 at 0.002 µM
tanespimycin: C=CCNC1=C2C[C@@H](C)C[C@H](OC)[C@H](O)[C@@H](C)/C=C(\C)[C@H](OC(N)=O)[C@@H](OC)/C=C\C=C(/C)C(=O)NC(=CC1=O)C2=O at 0.01 µM
lenalidomide: Nc1cccc2c1CN(C1CCC(=O)NC1=O)C2=O (stereo not shown) at 5 µM
GW9662: O=C(Nc1ccccc1)c1cc([N+](=O)[O-])ccc1Cl at 10 µM
LFM-A13: C/C(O)=C(\C#N)C(=O)Nc1cc(Br)ccc1Br at 10 µM
nutlin-3: COc1ccc(C2=N[C@@H](c3ccc(Cl)cc3)[C@@H](c3ccc(Cl)cc3)N2C(=O)N2CCNC(=O)C2)c(OC(C)C)c1 at 0.5 µM

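The test systems are human melanoma cell lines, treated with two drugs together for 72 h and then stained and imaged. The read-out is cell count (nuclei) in % of the DMSO control; lower values mean stronger growth inhibition or killing. Every drug was used at one fixed concentration, the higher of two screened. The file gives one value for each pair and line, without errors, so small differences may be noise.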 An unselected part of the screen is shown. A dash means that no value is listed here.

| # | Pair | WM3619 | COLO 829 | WM451Lu | COLO 792 | C32 | COLO 800 |
|---|---|---|---|---|---|---|---|
| 1 | nutlin-3 and tanespimycin | - | 66.7 | 54.2 | 55.1 | 12.4 | 73.8 |
| 2 | nilutamide and tanespimycin | 76.0 | 76.6 | 74.5 | 72.9 | 16.1 | 124 |
| 3 | GW9662 and nutlin-3 | 50.3 | 43.1 | 77.0 | 85.4 | 67.5 | 159 |
| 4 | lenalidomide and gemcitabine | 65.2 | 52.1 | 49.3 | 78.5 | 87.5 | 26.0 |
| 5 | nilutamide and GW2580 | 98.9 | 119 | 95.7 | 83.1 | 107 | 114 |
| 6 | crizotinib and GW9662 | 78.8 | 49.3 | 91.2 | 83.8 | 90.6 | 44.5 |
| 7 | gemcitabine and nutlin-3 | 50.1 | 40.6 | 49.2 | 63.4 | 84.1 | 20.6 |
| 8 | LFM-A13 and nutlin-3 | 64.7 | 75.2 | 110 | 80.9 | 73.7 | 72.6 |
| 9 | nilutamide and crizotinib | 110 | 72.8 | 86.7 | 77.5 | 103 | 77.6 |
| 10 | gemcitabine and GW9662 | 39.0 | 37.3 | 39.0 | 61.3 | 89.9 | 30.7 |
| 11 | GW2580 and lenalidomide | 79.8 | 91.4 | 92.2 | 82.1 | 87.4 | 91.3 |
| 12 | LFM-A13 and gemcitabine | 42.5 | 58.1 | 66.5 | 97.1 | 105 | 55.8 |
| 13 | crizotinib and tanespimycin | 61.4 | 102 | 78.7 | 113 | 24.3 | 81.6 |
| 14 | lenalidomide and nutlin-3 | 79.0 | 68.6 | 104 | 97.5 | 86.2 | 71.3 |
| 15 | GW2580 and gemcitabine | 48.1 | 52.1 | 59.7 | 93.9 | 73.9 | 26.9 |
| 16 | crizotinib and GW2580 | 100 | 77.4 | 80.4 | 80.9 | 83.4 | 63.4 |
| 17 | nilutamide and GW9662 | 77.4 | 51.1 | 88.8 | 73.5 | 95.9 | 51.6 |
| 18 | GW9662 and lenalidomide | 70.7 | 39.0 | 102 | 65.4 | 101 | 68.8 |
| 19 | GW9662 and tanespimycin | 48.4 | 53.6 | 69.3 | 78.0 | 12.8 | 98.6 |
| 20 | LFM-A13 and lenalidomide | 91.1 | 128 | 99.8 | 100 | 114 | 153 |
| 21 | crizotinib and LFM-A13 | 89.5 | 77.8 | 80.5 | 102 | 88.5 | 69.6 |
| 22 | crizotinib and lenalidomide | 70.8 | 104 | 101 | 110 | 94.8 | 58.2 |
| 23 | crizotinib and gemcitabine | 47.3 | 39.8 | 46.3 | 69.0 | 100 | 31.7 |